From PubChem BioAssay AID248 (DTP/NCI, 2004)
The list does not hold the whole screen: it gathers some chemical classes. Other doses and runs of a compound may be missing. T/C: endpoint of the treated group in % of that of the vehicle group. Some doses have a count of surviving animals in place of a T/C: the source files T/C as zero there, which appears to mark a toxic dose or a test without result, not a measured value. Some survivor counts are full or nearly so, which does not show that the dose was tolerated: survival well below the control is almost never listed, so the zero probably covers shortened survival too. Counts of survivors are from the toxicity check (mostly the fifth day) where no day follows; animals may have died later. Schedules are NCI's codes, taken here to give the interval after Q, in days (D) or hours (H), and the number of doses after X. Some doses were run more than once; the values are given in rising order. Brackets with × give the number of equal values in this list. For survival time, this PubChem deposit counts one and a half times the control or more as active, and values a quarter to a half above the control carry no call in these data; other NCI protocols may use other cut-offs. Some T/C values carry the count of animals alive at the toxicity check (mostly the fifth day); where neither a count nor a note follows, no animal had died by that day.

Tested on: L1210 leukemia ip in BDF1 mice, survival T/C
Test: NCI In Vivo Anticancer Drug Screen. Data for tumor model L1210 Leukemia (intraperitoneal) in B6D2F1 (BDF1) mice
Settings: higher T/C = longer survival

Structure (SMILES): NC(=O)c1[nH]cnc1/N=N\N(CCCl)CCCl
- T/C (T/C endpoint: mean survival time, dose: 1920.0 mg/kg/injection, schedule: Q01DX001 (ip), vehicle: saline): 90 % of control
- T/C (T/C endpoint: mean survival time, dose: 1920.0 mg/kg/injection, schedule: Q01DX001 (ip), vehicle: steroid suspending solution): 410 % of control
- survivor count (T/C endpoint: mean survival time, dose: 1920.0 mg/kg/injection, schedule: Q01DX001 (oral), vehicle: steroid suspending solution): 5 of 8
- T/C (T/C endpoint: mean survival time, dose: 2400.0 mg/kg/injection, schedule: Q01DX001 (oral), vehicle: carboxymethylcellulose (CMC)): 152 % of control
- T/C (T/C endpoint: mean survival time, dose: 2400.0 mg/kg/injection, schedule: Q08DX003 (oral), vehicle: steroid suspending solution): 97 % of control [7 of 8 alive]
- T/C (T/C endpoint: mean survival time, dose: 3200.0 mg/kg/injection, schedule: Q01DX001 (oral), vehicle: carboxymethylcellulose (CMC)): 488 % of control
- survivor count (T/C endpoint: mean survival time, dose: 3200.0 mg/kg/injection, schedule: Q01DX001 (oral), vehicle: steroid suspending solution): 6 of 8
- T/C (T/C endpoint: median survival time, dose: 25.0 mg/kg/injection, schedule: Q01DX009 (ip), vehicle: Klucel (hydroxypropylcellulose) (HPC)): 172 % of control
- T/C (T/C endpoint: median survival time, dose: 50.0 mg/kg/injection, schedule: Q01DX009 (ip), vehicle: Klucel (hydroxypropylcellulose) (HPC)): 205 % of control
- T/C (T/C endpoint: median survival time, dose: 100.0 mg/kg/injection, schedule: Q01DX001 (ip), vehicle: Klucel (hydroxypropylcellulose) (HPC), evaluated on day 27): 138 % of control
- T/C (T/C endpoint: median survival time, dose: 100.0 mg/kg/injection, schedule: Q01DX001 (ip), vehicle: Klucel (hydroxypropylcellulose) (HPC), evaluated on day 30): 166 % of control
- T/C (T/C endpoint: median survival time, dose: 100.0 mg/kg/injection, schedule: Q01DX001 (ip), vehicle: Klucel (hydroxypropylcellulose) (HPC), evaluated on day 38): 124 % of control
- T/C (T/C endpoint: median survival time, dose: 100.0 mg/kg/injection, schedule: Q01DX001 (ip), vehicle: Klucel (hydroxypropylcellulose) (HPC), evaluated on day 40): 155 % of control
- T/C (T/C endpoint: median survival time, dose: 100.0 mg/kg/injection, schedule: Q01DX001 (ip), vehicle: steroid suspending solution, evaluated on day 30): 133 % of control
- T/C (T/C endpoint: median survival time, dose: 100.0 mg/kg/injection, schedule: Q01DX001 (ip), vehicle: steroid suspending solution, evaluated on day 40): 127 and 133 % of control
- T/C (T/C endpoint: median survival time, dose: 100.0 mg/kg/injection, schedule: Q01DX001 (ip), vehicle: steroid suspending solution, evaluated on day 45): 161 % of control
- T/C (T/C endpoint: median survival time, dose: 100.0 mg/kg/injection, schedule: Q01DX001 (ip), vehicle: steroid suspending solution, evaluated on day 50): 144 and 155 % of control
- T/C (T/C endpoint: median survival time, dose: 100.0 mg/kg/injection, schedule: Q01DX001 (ip), vehicle: steroid suspending solution, evaluated on day 54): 181 and 194 % of control
- T/C (T/C endpoint: median survival time, dose: 100.0 mg/kg/injection, schedule: Q01DX009 (ip), vehicle: Klucel (hydroxypropylcellulose) (HPC)): 233 % of control
- T/C (T/C endpoint: median survival time, dose: 108.0 mg/kg/injection, schedule: Q01DX001 (ip), vehicle: Klucel (hydroxypropylcellulose) (HPC)): 145 % of control
- T/C (T/C endpoint: median survival time, dose: 180.0 mg/kg/injection, schedule: Q01DX001 (ip), vehicle: Klucel (hydroxypropylcellulose) (HPC), evaluated on day 7): 252 % of control
- T/C (T/C endpoint: median survival time, dose: 180.0 mg/kg/injection, schedule: Q01DX001 (ip), vehicle: Klucel (hydroxypropylcellulose) (HPC), evaluated on day 50): 240 % of control
- T/C (T/C endpoint: median survival time, dose: 200.0 mg/kg/injection, schedule: Q01DX001 (ip), vehicle: Klucel (hydroxypropylcellulose) (HPC), evaluated on day 27): 150 % of control
- T/C (T/C endpoint: median survival time, dose: 200.0 mg/kg/injection, schedule: Q01DX001 (ip), vehicle: Klucel (hydroxypropylcellulose) (HPC), evaluated on day 30): 177 % of control
- T/C (T/C endpoint: median survival time, dose: 200.0 mg/kg/injection, schedule: Q01DX001 (ip), vehicle: Klucel (hydroxypropylcellulose) (HPC), evaluated on day 38): 124 % of control
- T/C (T/C endpoint: median survival time, dose: 200.0 mg/kg/injection, schedule: Q01DX001 (ip), vehicle: Klucel (hydroxypropylcellulose) (HPC), evaluated on day 40): 188 % of control
- T/C (T/C endpoint: median survival time, dose: 200.0 mg/kg/injection, schedule: Q01DX001 (ip), vehicle: steroid suspending solution, evaluated on day 30): 161 % of control
- T/C (T/C endpoint: median survival time, dose: 200.0 mg/kg/injection, schedule: Q01DX001 (ip), vehicle: steroid suspending solution, evaluated on day 40): 150 and 155 % of control
- T/C (T/C endpoint: median survival time, dose: 200.0 mg/kg/injection, schedule: Q01DX001 (ip), vehicle: steroid suspending solution, evaluated on day 45): 177 % of control
- T/C (T/C endpoint: median survival time, dose: 200.0 mg/kg/injection, schedule: Q01DX001 (ip), vehicle: steroid suspending solution, evaluated on day 50): 177 and 555 % of control
- T/C (T/C endpoint: median survival time, dose: 200.0 mg/kg/injection, schedule: Q01DX001 (ip), vehicle: steroid suspending solution, evaluated on day 54): 222 and 675 % of control
- T/C (T/C endpoint: median survival time, dose: 200.0 mg/kg/injection, schedule: Q01DX001 (ip), vehicle: steroid suspending solution, evaluated on day 60): 250 % of control
- T/C (T/C endpoint: median survival time, dose: 200.0 mg/kg/injection, schedule: Q01DX001 (ip), vehicle: steroid suspending solution, evaluated on day 69): 505 % of control
- T/C (T/C endpoint: median survival time, dose: 200.0 mg/kg/injection, schedule: Q01DX009 (ip), vehicle: Klucel (hydroxypropylcellulose) (HPC)): 200 % of control
- T/C (T/C endpoint: median survival time, dose: 300.0 mg/kg/injection, schedule: Q01DX001 (ip), vehicle: Klucel (hydroxypropylcellulose) (HPC), evaluated on day 7): 343 % of control
- T/C (T/C endpoint: median survival time, dose: 300.0 mg/kg/injection, schedule: Q01DX001 (ip), vehicle: Klucel (hydroxypropylcellulose) (HPC), evaluated on day 30): 300 % of control
- T/C (T/C endpoint: median survival time, dose: 300.0 mg/kg/injection, schedule: Q01DX001 (ip), vehicle: Klucel (hydroxypropylcellulose) (HPC), evaluated on day 50): 315 % of control
- T/C (T/C endpoint: median survival time, dose: 400.0 mg/kg/injection, schedule: Q01DX001 (ip), vehicle: Klucel (hydroxypropylcellulose) (HPC), evaluated on day 27): 200 % of control
- T/C (T/C endpoint: median survival time, dose: 400.0 mg/kg/injection, schedule: Q01DX001 (ip), vehicle: Klucel (hydroxypropylcellulose) (HPC), evaluated on day 30): 111 % of control
- T/C (T/C endpoint: median survival time, dose: 400.0 mg/kg/injection, schedule: Q01DX001 (ip), vehicle: Klucel (hydroxypropylcellulose) (HPC), evaluated on day 38): 142 % of control
- T/C (T/C endpoint: median survival time, dose: 400.0 mg/kg/injection, schedule: Q01DX001 (ip), vehicle: Klucel (hydroxypropylcellulose) (HPC), evaluated on day 40): 444 % of control
- T/C (T/C endpoint: median survival time, dose: 400.0 mg/kg/injection, schedule: Q01DX001 (ip), vehicle: steroid suspending solution, evaluated on day 30): 333 % of control
- T/C (T/C endpoint: median survival time, dose: 400.0 mg/kg/injection, schedule: Q01DX001 (ip), vehicle: steroid suspending solution, evaluated on day 40): 161 and 227 % of control
- T/C (T/C endpoint: median survival time, dose: 400.0 mg/kg/injection, schedule: Q01DX001 (ip), vehicle: steroid suspending solution, evaluated on day 45): 172 % of control
- T/C (T/C endpoint: median survival time, dose: 400.0 mg/kg/injection, schedule: Q01DX001 (ip), vehicle: steroid suspending solution, evaluated on day 50): 555 % of control (2×)
- T/C (T/C endpoint: median survival time, dose: 400.0 mg/kg/injection, schedule: Q01DX001 (ip), vehicle: steroid suspending solution, evaluated on day 54): 383 and 675 % of control
- T/C (T/C endpoint: median survival time, dose: 400.0 mg/kg/injection, schedule: Q01DX001 (ip), vehicle: steroid suspending solution, evaluated on day 60): 488 % of control
- T/C (T/C endpoint: median survival time, dose: 400.0 mg/kg/injection, schedule: Q01DX001 (ip), vehicle: steroid suspending solution, evaluated on day 69): 766 % of control
- T/C (T/C endpoint: median survival time, dose: 500.0 mg/kg/injection, schedule: Q01DX001 (ip), vehicle: Klucel (hydroxypropylcellulose) (HPC), evaluated on day 7): 255 % of control
- T/C (T/C endpoint: median survival time, dose: 500.0 mg/kg/injection, schedule: Q01DX001 (ip), vehicle: Klucel (hydroxypropylcellulose) (HPC), evaluated on day 30): 180 % of control
- T/C (T/C endpoint: median survival time, dose: 500.0 mg/kg/injection, schedule: Q01DX001 (ip), vehicle: Klucel (hydroxypropylcellulose) (HPC), evaluated on day 50): 250 % of control
- T/C (T/C endpoint: median survival time, dose: 800.0 mg/kg/injection, schedule: Q01DX001 (ip), vehicle: Klucel (hydroxypropylcellulose) (HPC), evaluated on day 27): 177 % of control
- T/C (T/C endpoint: median survival time, dose: 800.0 mg/kg/injection, schedule: Q01DX001 (ip), vehicle: Klucel (hydroxypropylcellulose) (HPC), evaluated on day 30): 88 % of control
- T/C (T/C endpoint: median survival time, dose: 800.0 mg/kg/injection, schedule: Q01DX001 (ip), vehicle: Klucel (hydroxypropylcellulose) (HPC), evaluated on day 38): 136 % of control
- T/C (T/C endpoint: median survival time, dose: 800.0 mg/kg/injection, schedule: Q01DX001 (ip), vehicle: Klucel (hydroxypropylcellulose) (HPC), evaluated on day 40): 116 % of control [7 of 8 alive]
- T/C (T/C endpoint: median survival time, dose: 800.0 mg/kg/injection, schedule: Q01DX001 (ip), vehicle: steroid suspending solution, evaluated on day 30): 238 % of control
- T/C (T/C endpoint: median survival time, dose: 800.0 mg/kg/injection, schedule: Q01DX001 (ip), vehicle: steroid suspending solution, evaluated on day 40): 161 and 333 % of control
- T/C (T/C endpoint: median survival time, dose: 800.0 mg/kg/injection, schedule: Q01DX001 (ip), vehicle: steroid suspending solution, evaluated on day 50): 266 % of control
- T/C (T/C endpoint: median survival time, dose: 800.0 mg/kg/injection, schedule: Q01DX001 (ip), vehicle: steroid suspending solution, evaluated on day 54): 127 and 675 % of control
- survivor count (T/C endpoint: median survival time, dose: 800.0 mg/kg/injection, schedule: Q01DX001 (ip), vehicle: steroid suspending solution): 7 of 8 and 8 of 8 (3×)
- T/C (T/C endpoint: median survival time, dose: 833.0 mg/kg/injection, schedule: Q01DX001 (ip), vehicle: Klucel (hydroxypropylcellulose) (HPC), evaluated on day 7): 222 % of control
- T/C (T/C endpoint: median survival time, dose: 833.0 mg/kg/injection, schedule: Q01DX001 (ip), vehicle: Klucel (hydroxypropylcellulose) (HPC), evaluated on day 50): 215 % of control
- survivor count (T/C endpoint: median survival time, dose: 833.0 mg/kg/injection, schedule: Q01DX001 (ip), vehicle: Klucel (hydroxypropylcellulose) (HPC)): 7 of 8
